These are yes or no findings as the source states them, for the method shown. Where a sequence is shown, tags or fusion partners need not be part of it.

For the assay, the target named is T1, GST-Sbp1 (S. cerevisiae) (UniProt P10080).
T1 sequence: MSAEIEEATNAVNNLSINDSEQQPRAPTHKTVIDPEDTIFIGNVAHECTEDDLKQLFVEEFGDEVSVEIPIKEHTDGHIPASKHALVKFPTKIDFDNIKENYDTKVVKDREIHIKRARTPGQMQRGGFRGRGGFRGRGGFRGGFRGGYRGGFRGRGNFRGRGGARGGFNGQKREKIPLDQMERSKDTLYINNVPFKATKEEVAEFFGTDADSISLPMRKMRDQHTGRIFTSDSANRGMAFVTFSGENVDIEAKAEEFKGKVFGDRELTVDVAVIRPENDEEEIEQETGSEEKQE
Nature of the assay: pull-down; domain mutants of Pab1 tested for binding with Sbp1 (Supplemental Fig. S5A-H); which partner was GST-tagged and whether RNA was present is not given; both purified.
Turning to “Pab1 RRM1 domain mutant (S. cerevisiae) (domain or fragment)”, the binding entry was “no binding”.

As to “Pab1 RRM2 domain mutant (S. cerevisiae) (domain or fragment)”, the binding entry is listed as “no binding”.

Consider “Pab1 RRM3 domain mutant (S. cerevisiae) (domain or fragment)”, for which the binding entry was “no binding”.

As to “Pab1 RRM4 domain mutant (S. cerevisiae) (domain or fragment)”, the binding result was “no binding”.

(Values after publication PMC5733569, “Sbp1 modulates the translation of Pab1 mRNA in a poly(A)- and RGG-dependent manner” (RNA, 2018).)
